This is one part of the list. Shown are side measurements of this screen, not its main read-out; they come without a call. Most of these compounds were active or inconclusive in the main read-out, so they are no random draw. Words in brackets tell the shape of the fitted curve; partial curves, single points and poor fits give uncertain potencies.

This experiment can be described thus: qHTS Assay for Lipid Storage Modulators in Drosophila S3 Cells.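 On cell number change: cells counted by Cell Tracker Red CMTPX staining in the red channel.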 Conditions: BODIPY lipid droplet fluorescence, 18-24 h; for cell number change: measured here: cell count max response, cells fed with added oleic acid. From the text:
NIH Molecular Libraries Probe Production Centers Network [MLPCN] NIH Chemical Genomics Center [NCGC] MLPCN Grant: 1 R03 MH085686-01 Assay Submitter (PI): Beller, Mathias; Max-Planck-Institut fur Biophysikalische Chemie NCGC Assay Overview: Storing lipids as a reservoir for energy or the anabolism of elementary metabolites is a common feature of probably all cells and is conserved from bacteria to humans. The universal cellular lipid storage organelle is the so-called lipid storage droplet (LD). Although ubiquitous, LDs share a simple structure composed of a hydrophobic core that harbors the storage lipids, which is shielded by a droplet-specific phospholipid monolayer to which proteins are attached. The current model of LD biogenesis involves an incorporation of the lipid core into the membrane leaflets of the endoplasmic reticulum (ER) followed by a subsequent budding-like maturation of a LD, which ultimately pinches off. Once released, LD volume can increase by localized lipogenesis or fusion of existing droplet. Storage lipids are re-mobilized enzymatically by lipase activity. Lipase regulation in the adipocyte is heavily studied and involves multiple components including catecholamine signaling, the LD-associated proteins Perilipin and comparative gene identification (CGI-58) and at least two lipases named hormone sensitive lipase (HSL) and adipocyte triglyceride lipase (ATGL). LD regulation outside of the adipocyte is poorly understood and only few components are known. However, there is an urgent need to learn more about ectopic fat depots as mislocalized storage of lipids, for example in the liver or muscle, is an eminent health problem associated with insulin resistance or the metabolic syndrome. We developed a laser-scanning cytometer assay to enable 1,536-well screening and combined the results of the small molecules screen with an RNAi database based on lipid storage.
Triacsin C (Sigma-Aldrich T-4540), an inhibitor of long-chain fatty acyl CoA synthetase that blocks synthesis of triglycerides, was used as a positive control for lipid under-storage. A total of 23 nL of compound solution of different concentrations were transferred to the assay plates using a Kalypsys pin tool equipped with a 1,536-pin array containing 10-nL slotted pins (FP1S10, 0.457-mm diameter, 50.8 mm long; V&P Scientific). One microliter of oleic acid (400 uM) was added, and the plate was lidded with stainless steel rubber gasket lined lids containing pinholes. […] Fluorescence was detected by excitation of the fluorophores with a 488-nm laser on an Acumen Explorer (TTP Lab Tech). The total intensity in channel 2 (500-530 nm) reflected lipid droplet accumulation. Cells were detected using channel 3 (575-640 nm) with 5-um width and 100-um depth filters. The ratio of the number of objects in PMT channel 2 over the number of objects in PMT channel 3 was also calculated. Percent activity was computed relative to an internal control (100% inhibited lipid droplet deposition due to the presence of 20 uM Triacsin C), which was added to 32 wells/plate.

[1] abbreviates: measured here: cell number channel AC50, cells fed with added oleic acid.
[2] abbreviates: measured here: lipid fluorescence (Fed channel) AC50, cells fed with added oleic acid.

For `Cc1cc(C)c(C(=O)NC2CC(C)(C)Cc3c2cnn3-c2ccccc2)o1` (stereo unspecified), the cell number change turned out to be 8.96%.

By AC50 is commonly meant the midpoint of the concentration-response curve, whichever way the signal moves. Low values mean greater potency, high ones weaker potency. For `O=C(CCC1COc2ccccc2O1)Nc1cccnc1` (stereo unspecified), the cell number change was 50.1%. In addition, the AC50 under setting [1] is 3.26 µM [rising, partial curve].

As for `CCc1nccn1S(=O)(=O)c1cc(OC)c(Cl)cc1OC`, the cell number change stood at 13.4%. The AC50 under setting [1] is 0.651 µM [falling, single point]. The AC50 under setting [2] is 0.58 µM [falling, single point].

On to `Cn1nc(-c2ccc(C(=O)N3CCN(Cc4ccccc4)CC3)cc2)c2ccccc2c1=O`, for which the cell number change is 7.45%. The AC50 under setting [2] is 0.58 µM [falling, single point].

Consider `COC(=O)c1c(NC(C)=O)sc(C(=O)N2CCOCC2)c1C`, for which the cell number change is 18.1%.

As for `CCn1c(CSc2nc(C)cc(C)n2)nnc1SCC(=O)N1CCCc2ccccc21`, the cell number change was 16.7%.

As to `Cc1ccc(C(C[N+](=O)[O-])c2c(C)cc3ccccn23)cc1` (stereo unspecified), the cell number change is -39.6%. For the same compound, the AC50 under setting [1] is 3.66 µM [rising, single point]. Further, the AC50 under setting [2] was 16.4 µM [falling, partial curve, poor fit].

With `N#Cc1cc2cc3c(cc2nc1N1CCCCC1)OCCO3`, the cell number change is -25.9%. Further, under setting [2], the AC50 is 0.0259 µM [rising, full curve].

Turning to `CN(C)C=Nc1c(C(=O)c2ccccc2)sc2nccc(N(C)C)c12`, the cell number change is -12.8%. Further, the AC50 under setting [2] was 29.1 µM [rising, single point].

In the case of `O=C(CSc1nnnn1-c1cccc(F)c1)Nc1nc2ccccc2s1`, the cell number change was -42.2%. Also, under setting [1], the AC50 was 29.1 µM [falling, single point]. Moreover, the AC50 under setting [2] is 29.1 µM [falling, single point].

Consider `O=C(OCC(=O)N1CCN(C(=O)c2ccco2)CC1)c1ccccc1C(=O)c1ccc(Cl)cc1`, for which the cell number change turned out to be 12.3%. Further, the AC50 under setting [2] was 29.1 µM [rising, single point].

Take `COc1ccccc1/C=C/C=C1\Oc2c(ccc(O)c2CN(C)C)C1=O`: the cell number change is 4.59%.

Regarding `CCCOC1CCCN(C(=O)c2cc(Cl)c(Cl)cc2C(=O)O)C1` (stereo unspecified), the cell number change was -3.2%.

Turning to `CC(OC(=O)C1CCCC1)C(=O)Nc1ncc(Cl)cc1Cl` (stereo unspecified), the cell number change is -6.1%. The AC50 under setting [2] was 0.00461 µM [falling, full curve, poor fit].

For the compound `Cc1nc(=S)c2c([nH]1)-c1ccccc1CC21CCCCC1`, the cell number change amounted to 35%. Moreover, the concentration at half-maximal activity (AC50) under setting [1] is 5.8 µM [rising, full curve, poor fit]. Also, the AC50 under setting [2] is 0.116 µM [rising, full curve].

For `O=C(COc1ccc(Br)cc1CNC1CCCCC1)NCCc1ccccc1`, the cell number change worked out at 23.4%.

With `Cn1c(=O)n(C)c2cc(S(=O)(=O)O)ccc21`, the cell number change was determined as 0.149%. Moreover, the AC50 under setting [2] is 3.26 µM [rising, single point].

For `O=C(CSc1nc(-c2ccco2)cc(C(F)(F)F)n1)N1CCN(c2ccc(Cl)cc2)CC1`, the cell number change is -27.3%. Also, under setting [2], the concentration at half-maximal activity (AC50) is 29.1 µM [falling, single point].

Turning to `COCC(=O)Nc1cc(C(=O)OC)cc(C(=O)OC)c1`, the cell number change was 23.6%. In addition, the AC50 under setting [2] was 13 µM [rising, partial curve, poor fit].

`CSCc1ccc(C(=O)NC2CC(C)(C)Cc3c2cnn3-c2ccc(F)cc2)o1` (stereo unspecified): under setting [2], the AC50 was 0.651 µM [falling, partial curve, poor fit].

Consider `CCOC(=O)c1sc(C)c(C(=O)NCCCN2CCOCC2)c1N`, for which the cell number change is -19.9%. Also, the AC50 under setting [1] is 5.17 µM [falling, single point]. Further, the AC50 under setting [2] is 1.03 µM [falling, full curve].

For `COC(=O)CCn1nnc(-c2cccs2)n1`, the cell number change was -17.8%. For the same compound, under setting [2], the AC50 was 3.26 µM [falling, full curve, poor fit].

Turning to `CCOCCCNC(=O)c1cc2c(=O)n3cccc(C)c3nc2n1C`, the AC50 under setting [2] was 0.164 µM [rising, full curve, poor fit].

Take `Cc1nn(-c2ccccc2)c(C)c1N`: the cell number change worked out at 59.9%. Besides, the AC50 under setting [1] is 29.1 µM [rising, single point]. In addition, the AC50 under setting [2] was 0.58 µM [rising, single point].

With `O=C(CSC1CC(=O)N(CCc2ccccc2)C1=O)Nc1ccc(Br)cc1` (stereo unspecified), the cell number change was -39.2%. Besides, the half-maximal activity concentration (AC50) under setting [2] was 0.206 µM [falling, full curve, poor fit].

For the compound `Cc1ccc(NC(=O)NCc2ccc3c(c2)OCO3)cc1`, the cell number change amounted to 33.9%. The AC50 under setting [1] is 0.651 µM [rising, full curve, poor fit]. Also, under setting [2], the AC50 was 8.2 µM [rising, partial curve].

`COCCNC(=O)CCCCCN1C(=O)CCC1=O`: the cell number change was -90%. Moreover, the AC50 under setting [1] is 29.1 µM [falling, single point]. The AC50 under setting [2] was 29.1 µM [falling, single point].

For the compound `OCCC1CN(C/C=C/c2ccco2)CCN1Cc1ccccc1` (stereo unspecified), the cell number change worked out at 14.2%. Further, the AC50 under setting [2] was 29.1 µM [falling, single point].

For `O=C(C[n+]1cc(Br)cc2ccccc21)c1ccccc1`, the cell number change was -20.9%. Under setting [1], the half-maximal activity concentration (AC50) is 0.259 µM [falling, full curve, poor fit].

As for `COC(=O)C(Cc1ccccc1)NC(=O)CCNC(=O)c1ccco1` (stereo unspecified), the cell number change was -1.35%.

For `O=C(/C=C/c1ccc(F)cc1)c1ccc(N2CCOCC2)cc1`, the cell number change turned out to be 0.661%. The AC50 under setting [2] is 2.06 µM [rising, full curve, poor fit].

The values are drawn from PubChem BioAssay AID2685 (National Center for Advancing Translational Sciences (NCATS), 2010).
